Measurements as given in PubChem BioAssay AID248 (DTP/NCI, 2004).
The list does not hold the whole screen: it is rich in T/C values a quarter to a half above the control, in often repeated tests (any T/C) and in doses without a T/C. Other doses and runs of a compound stand elsewhere. T/C: endpoint of the treated group in % of that of the vehicle group. Some doses have a count of surviving animals in place of a T/C: the source holds a T/C of zero for them, seemingly a mark for toxic or unscored doses. Some doses without a T/C left all or most animals alive at the check, yet need not have been tolerated: the source hardly ever lists a survival T/C far under the control, and the zero likely stands for such cases as well. Survivors were counted at the toxicity check, usually on the fifth day, unless a day is given; later deaths do not show. Schedule codes are those of the source, read here as Q, the interval in days (D) or hours (H), X, the number of doses. Where survival is the endpoint, the PubChem record calls one and a half times the control and up active, and a quarter to a half above the control has no call in these data; cut-offs in other NCI protocols can differ.

Tested on: L1210 leukemia ip in BDF1 mice, survival T/C
Assay: NCI In Vivo Anticancer Drug Screen. Data for tumor model L1210 Leukemia (intraperitoneal) in B6D2F1 (BDF1) mice
Conditions: T/C endpoint: mean survival time, higher T/C = longer survival

## Cc1cc(CCl)c(C)cc1CCl
dose: 100.0 mg/kg/injection, schedule: Q04DX003 (ip), vehicle: saline with Tween-80
  survivor count: 0 of 3

## COc1cc(OC)c(N=CN(C)C)cc1Cl
dose: 150.0 mg/kg/injection, schedule: Q01DX009 (ip), vehicle: Klucel (hydroxypropylcellulose) (HPC)
  survivor count: 0 of 6
dose: 300.0 mg/kg/injection, schedule: Q01DX009 (ip), vehicle: Klucel (hydroxypropylcellulose) (HPC)
  survivor count: 0 of 6

## CCN(CC)CCSC(=O)C(O)(c1ccccc1)C1CCCC1 (stereo not drawn)
dose: 200.0 mg/kg/injection, schedule: Q01DX009 (ip), vehicle: saline
  survivor count: 0 of 6
dose: 300.0 mg/kg/injection, schedule: Q01DX001 (ip), vehicle: saline
  survivor count: 1 of 6
dose: 400.0 mg/kg/injection, schedule: Q04DX003 (ip), vehicle: saline
  survivor count: 0 of 6

## C=CCn1cnc2c(=S)nc[nH]c21
dose: 18.0 mg/kg/injection, schedule: Q01DX015 (ip), vehicle: other
  T/C: 135 % of control
dose: 26.0 mg/kg/injection, schedule: Q01DX015 (ip), vehicle: other
  T/C: 133 % of control
dose: 40.0 mg/kg/injection, schedule: Q01DX015 (ip), vehicle: other
  T/C: 133 % of control
dose: 180.0 mg/kg/injection, schedule: Q01DX015 (ip), vehicle: other
  survivor count: 6 of 6
dose: 200.0 mg/kg/injection, schedule: Q01DX001 (ip), vehicle: other
  T/C: 143 % of control
dose: 300.0 mg/kg/injection, schedule: Q01DX015 (ip), vehicle: other
  survivor count: 6 of 6
dose: 400.0 mg/kg/injection, schedule: Q01DX001 (ip), vehicle: other
  T/C: 135 % of control
